Experimental data: PMC5386741
No constants are given. Whether binding was seen depends on the method and setting. Binding seen in cells or lysates may run through a third protein. Some entries that bind do so weakly or less than the wild type.

Chains of the proteins cited; added tags and fusions are not shown. Residues count along the entry.
UniProt P35222: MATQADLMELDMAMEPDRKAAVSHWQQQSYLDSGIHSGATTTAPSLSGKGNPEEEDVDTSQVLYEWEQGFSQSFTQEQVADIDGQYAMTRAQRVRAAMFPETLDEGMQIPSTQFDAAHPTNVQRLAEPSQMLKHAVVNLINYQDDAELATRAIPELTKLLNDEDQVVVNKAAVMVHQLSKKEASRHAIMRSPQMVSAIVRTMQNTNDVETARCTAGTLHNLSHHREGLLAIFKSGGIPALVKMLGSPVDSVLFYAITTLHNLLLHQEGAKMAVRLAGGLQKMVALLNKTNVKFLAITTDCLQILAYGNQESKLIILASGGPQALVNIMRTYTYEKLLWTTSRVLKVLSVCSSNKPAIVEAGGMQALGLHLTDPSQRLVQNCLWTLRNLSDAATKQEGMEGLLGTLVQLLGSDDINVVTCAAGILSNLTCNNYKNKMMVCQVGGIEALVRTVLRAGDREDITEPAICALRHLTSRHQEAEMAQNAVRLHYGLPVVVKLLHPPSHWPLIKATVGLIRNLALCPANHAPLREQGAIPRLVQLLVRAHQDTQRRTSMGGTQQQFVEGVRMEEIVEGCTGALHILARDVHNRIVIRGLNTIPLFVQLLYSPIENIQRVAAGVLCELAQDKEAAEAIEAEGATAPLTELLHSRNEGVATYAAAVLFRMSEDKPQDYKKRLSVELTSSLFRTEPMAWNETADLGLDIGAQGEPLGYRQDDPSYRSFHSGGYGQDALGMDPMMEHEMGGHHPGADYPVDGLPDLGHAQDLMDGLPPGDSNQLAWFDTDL
UniProt O75197, residues 32-1615: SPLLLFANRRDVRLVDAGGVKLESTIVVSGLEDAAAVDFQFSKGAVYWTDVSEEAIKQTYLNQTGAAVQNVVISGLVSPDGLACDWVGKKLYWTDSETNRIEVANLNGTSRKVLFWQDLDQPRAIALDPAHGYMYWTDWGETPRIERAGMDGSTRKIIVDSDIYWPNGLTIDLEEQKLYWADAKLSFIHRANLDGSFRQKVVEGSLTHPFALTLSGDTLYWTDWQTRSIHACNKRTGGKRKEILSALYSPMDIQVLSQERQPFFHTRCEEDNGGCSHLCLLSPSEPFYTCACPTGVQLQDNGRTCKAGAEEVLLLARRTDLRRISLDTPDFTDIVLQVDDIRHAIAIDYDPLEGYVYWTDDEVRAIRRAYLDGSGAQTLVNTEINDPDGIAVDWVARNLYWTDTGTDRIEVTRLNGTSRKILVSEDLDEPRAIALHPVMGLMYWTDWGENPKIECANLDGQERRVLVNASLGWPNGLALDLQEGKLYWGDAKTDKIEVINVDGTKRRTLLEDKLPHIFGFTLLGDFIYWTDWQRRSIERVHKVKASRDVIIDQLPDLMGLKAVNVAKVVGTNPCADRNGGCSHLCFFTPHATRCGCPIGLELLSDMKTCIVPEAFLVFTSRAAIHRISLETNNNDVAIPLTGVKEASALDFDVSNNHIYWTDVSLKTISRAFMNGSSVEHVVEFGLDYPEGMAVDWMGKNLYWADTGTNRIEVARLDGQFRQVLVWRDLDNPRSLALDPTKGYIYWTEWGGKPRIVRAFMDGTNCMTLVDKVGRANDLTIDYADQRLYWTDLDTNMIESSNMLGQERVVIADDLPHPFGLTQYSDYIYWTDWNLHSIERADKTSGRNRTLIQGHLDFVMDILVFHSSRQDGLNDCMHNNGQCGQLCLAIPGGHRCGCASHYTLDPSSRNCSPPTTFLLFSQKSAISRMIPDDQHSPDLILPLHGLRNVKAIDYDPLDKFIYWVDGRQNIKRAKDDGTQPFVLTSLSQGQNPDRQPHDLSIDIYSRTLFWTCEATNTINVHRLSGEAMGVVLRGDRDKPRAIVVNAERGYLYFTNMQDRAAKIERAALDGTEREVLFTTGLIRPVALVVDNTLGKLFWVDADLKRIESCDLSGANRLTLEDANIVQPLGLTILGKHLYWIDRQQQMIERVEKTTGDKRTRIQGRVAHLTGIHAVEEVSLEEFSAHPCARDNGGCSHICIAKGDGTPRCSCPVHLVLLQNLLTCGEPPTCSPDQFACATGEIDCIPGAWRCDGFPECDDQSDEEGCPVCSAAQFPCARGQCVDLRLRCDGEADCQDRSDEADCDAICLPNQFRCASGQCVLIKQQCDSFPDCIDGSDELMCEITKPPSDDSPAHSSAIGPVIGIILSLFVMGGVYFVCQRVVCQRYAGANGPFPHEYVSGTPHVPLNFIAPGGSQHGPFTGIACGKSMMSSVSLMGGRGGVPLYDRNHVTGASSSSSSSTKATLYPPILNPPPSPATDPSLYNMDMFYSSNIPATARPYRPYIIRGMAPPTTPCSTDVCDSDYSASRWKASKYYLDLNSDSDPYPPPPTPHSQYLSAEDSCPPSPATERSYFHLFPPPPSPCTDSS

Key:
[1] = target: T1, tissue transglutaminase (human (endogenous in SW620)) (UniProt P21980); test: co-IP; SW620 whole cell lysates (600 μg), 0.5 μg primary antibody, protein A or G Sepharose, 4°C; co-IP buffer 50 mM Tris-HCl, 0.25% sodium deoxycholate, 150 mM NaCl, 500 μM TG inhibitor R283; Western blot of the partner; cells treated with DMSO (control), 1 μM 1-155 or transduced with TG2 shRNA
T1 sequence: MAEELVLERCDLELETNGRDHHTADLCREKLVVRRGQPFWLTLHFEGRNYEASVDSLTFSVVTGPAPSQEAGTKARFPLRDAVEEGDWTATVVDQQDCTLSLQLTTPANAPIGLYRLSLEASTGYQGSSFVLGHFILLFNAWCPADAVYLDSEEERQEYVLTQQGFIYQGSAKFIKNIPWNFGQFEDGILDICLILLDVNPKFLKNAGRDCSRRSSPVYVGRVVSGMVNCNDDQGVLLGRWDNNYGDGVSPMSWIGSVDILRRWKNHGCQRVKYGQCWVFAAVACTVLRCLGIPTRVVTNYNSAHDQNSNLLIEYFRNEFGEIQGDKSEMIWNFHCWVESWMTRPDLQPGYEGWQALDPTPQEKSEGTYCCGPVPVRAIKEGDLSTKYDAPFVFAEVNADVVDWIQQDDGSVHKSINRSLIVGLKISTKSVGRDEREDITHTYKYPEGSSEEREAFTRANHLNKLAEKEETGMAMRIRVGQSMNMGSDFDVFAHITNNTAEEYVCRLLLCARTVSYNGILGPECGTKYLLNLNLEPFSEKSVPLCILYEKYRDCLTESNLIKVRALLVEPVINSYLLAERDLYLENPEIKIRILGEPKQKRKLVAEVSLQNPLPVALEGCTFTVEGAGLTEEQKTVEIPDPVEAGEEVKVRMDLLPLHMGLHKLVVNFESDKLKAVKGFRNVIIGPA

[2] = target: T1, tissue transglutaminase (human (endogenous in SW620)); test: condition: only cells treated with TG2 inhibitor 1-155 (1 μM); co-IP; as a1, SW620 cells treated with the TG2 selective inhibitor 1-155 (1 μM) before lysis; TG2 co-IP blotted for β-catenin and β-catenin co-IP blotted for TG2
[3] = target: β-catenin (human (endogenous in SW620)) (UniProt P35222); test: co-IP; SW620 whole cell lysates (600 μg), 0.5 μg primary antibody, protein A or G Sepharose, 4°C; co-IP buffer 50 mM Tris-HCl, 0.25% sodium deoxycholate, 150 mM NaCl, 500 μM TG inhibitor R283; Western blot of the partner; cells treated with DMSO (control), 1 μM 1-155 or transduced with TG2 shRNA

In the case of “Low-density lipoprotein receptor-related protein 5 (from UniProt O75197 32-1615)”, the binding [1] is reported as “binds”.

β-catenin (from UniProt P35222 1-781) was tested, and the binding [2] was “no binding” and the binding [1] was “binds”.

B1: tissue transglutaminase (enzyme, UniProt P21980 1-687)
chain: T1 sequence
For B1, the binding [3] was “binds”.
